Source: patent US7071231B2, “Naphthalene ureas as glucose uptake enhancers” (Telik, Inc., priority 1999, dated 2006)
At least one compound was matched to its structure with a doubt left.

Tested on: 3T3 L1 adipocytes
Experiment: Effect of Wortmannin and Cytochalasin on glucose uptake
Format: cell-based
Settings: 100 nM Wortmannin pretreatment; stimulation by Compound 15 alone or Compound 15 plus 5.6 nM insulin
Procedure: Effect of Wortmannin and Cytochalasin on Glucose Uptake:
The glucose transport pathway stimulated by insulin involves activation of PI3 Kinase. Wortmannin is a selective inhibitor of PI3 Kinase and inhibits insulin-stimulated glucose transport. 3T3 L1 adipocytes were pretreated with 100 nM Wortmannin and stimulated with the compounds in the presence or absence of insulin. […] Insulin-stimulated glucose transport is mediated by glucose transporter proteins. Cytochalasin B is an inhibitor of glucose transporters and inhibits insulin-stimulated glucose uptake.

COC[C@H]1OC(=O)c2coc3c2[C@@]1(C)C1=C(C3=O)[C@@H]2CCC(=O)[C@@]2(C)C[C@H]1OC(C)=O [Wortmannin]
effect on stimulation of glucose transport: inhibited the stimulation of glucose transport
